From article PMC8797470, “Disruption of the pentraxin 3/CD44 interaction as an efficient therapy for triple‐negative breast cancers” (Clinical and Translational Medicine, 2022)
No constants are given. Whether binding was seen depends on the method and setting. Binding seen in cells or lysates may run through a third protein. Some binding calls cover weakened binding; strength is not graded here.

By UniProt entry, the sequences of proteins in these tests, tags left out. Residues count along the entry.
UniProt P16070, residues 21-742: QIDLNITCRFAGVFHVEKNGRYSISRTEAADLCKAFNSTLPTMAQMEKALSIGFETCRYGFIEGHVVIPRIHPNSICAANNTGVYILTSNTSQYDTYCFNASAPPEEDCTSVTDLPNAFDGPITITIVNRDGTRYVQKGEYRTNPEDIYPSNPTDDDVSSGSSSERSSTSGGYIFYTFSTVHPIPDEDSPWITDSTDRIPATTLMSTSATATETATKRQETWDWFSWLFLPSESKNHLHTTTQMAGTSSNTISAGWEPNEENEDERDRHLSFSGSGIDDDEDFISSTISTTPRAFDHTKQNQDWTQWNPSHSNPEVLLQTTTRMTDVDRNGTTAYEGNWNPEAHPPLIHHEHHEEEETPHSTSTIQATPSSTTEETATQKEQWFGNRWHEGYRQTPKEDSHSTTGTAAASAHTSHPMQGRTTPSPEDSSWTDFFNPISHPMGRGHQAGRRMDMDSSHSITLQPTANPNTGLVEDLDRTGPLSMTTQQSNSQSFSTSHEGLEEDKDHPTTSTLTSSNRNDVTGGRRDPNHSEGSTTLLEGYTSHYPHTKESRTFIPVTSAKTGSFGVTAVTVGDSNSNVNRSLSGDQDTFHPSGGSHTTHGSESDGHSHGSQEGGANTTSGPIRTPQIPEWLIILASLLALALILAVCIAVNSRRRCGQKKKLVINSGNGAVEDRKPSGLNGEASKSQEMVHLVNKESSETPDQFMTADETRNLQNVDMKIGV
UniProt P26022, residues 18-381: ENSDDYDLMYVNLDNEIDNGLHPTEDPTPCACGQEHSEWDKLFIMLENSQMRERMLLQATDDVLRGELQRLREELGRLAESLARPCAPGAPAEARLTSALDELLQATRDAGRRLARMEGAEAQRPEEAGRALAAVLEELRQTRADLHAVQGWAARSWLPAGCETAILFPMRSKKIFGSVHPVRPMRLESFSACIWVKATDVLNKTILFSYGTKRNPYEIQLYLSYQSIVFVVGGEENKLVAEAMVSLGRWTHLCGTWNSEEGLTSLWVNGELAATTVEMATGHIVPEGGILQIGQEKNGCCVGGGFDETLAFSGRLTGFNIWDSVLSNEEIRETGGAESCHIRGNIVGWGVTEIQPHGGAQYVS

Tests used:
[1] = molecular target: CD44 of MDA-MB-231 cells (human (endogenous in MDA-MB-231)) (UniProt P16070); assay: proximity ligation; MDA-MB-231 cells on coverslips treated with or without His-PTX3 for 1 h, fixed; anti-His and anti-CD44 (active form) antibodies; puncta per cell counted; only the binder purified
[2] = molecular target: CD44 of MDA-MB-231 cells (human (endogenous in MDA-MB-231)) (UniProt P16070); assay: co-IP; MDA-MB-231 membrane proteins (Mem-PER Plus kit) incubated with His-PTX3, then with PTX3 antibody or CD44 antibody at 4°C overnight, protein-A/G agarose, RIPA washes, Western blot; IgG as negative control; only the binder purified

- binding [1]: binds
- binding [2]: binds
Substance: recombinant His/PTX3 (pentraxin 3) from Expi293F human cells (from UniProt P26022 18-381) (ligand)
